Source: PubChem BioAssay AID2685 (National Center for Advancing Translational Sciences (NCATS), 2010)
Some of the results follow. Shown are side measurements of this screen, not its main read-out; they come without a call. Most of these compounds were active or inconclusive in the main read-out, so they are no random draw. Potencies come from curve fits of mixed quality, noted in brackets.

Test: qHTS Assay for Lipid Storage Modulators in Drosophila S3 Cells;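 on cell number change: cells counted by Cell Tracker Red CMTPX staining in the red channel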
Details: BODIPY lipid droplet fluorescence, 18-24 h; for cell number change: measured here: cell count max response, cells fed with added oleic acid
Outline: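 Laser-scanning cytometry quantifies lipid droplet accumulation (500–530 nm total intensity; droplet/cell object ratio) in oleic acid-fed (400 uM added) Drosophila S3 cells treated with a concentration series. 20 uM Triacsin C defined 100% inhibition.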

[1] = measured here: cell number channel AC50, cells fed with added oleic acid
[2] = measured here: lipid fluorescence (Fed channel) AC50, cells fed with added oleic acid

Row | SMILES | cell number change | AC50 [1] | AC50 [2]
1 | COc1cc(NC(=O)NCc2ccncc2)cc(OC)c1OC | -1.72% | 0.517 µM [rising, single point] | 
2 | COc1ccccc1N=Nc1c(C)[nH][nH]c1=O | -16.7% |  | 0.58 µM [rising, single point]
3 | Cc1ccc(CNS(=O)(=O)NCc2ccccc2)cc1 |  |  | 0.116 µM [falling, full curve, poor fit]
4 | Nc1c(C(=O)N2CCOCC2)sc2nc(N3CCOCC3)c3c(c12)CCCC3 | -34% | 18.4 µM [falling, single point] | 18.4 µM [falling, single point]
5 | Cc1cc(Cl)n2nc(C)c(-c3ccc(Cl)cc3)c2n1 | -32.3% | 29.1 µM [falling, single point] | 
6 | Cc1cnc(N2C(=O)c3ccc([N+](=O)[O-])cc3C2=O)s1 | -24.4% |  | 
7 | CCn1ncc(NC(=S)Nc2ccc3c(c2)OCO3)c1C(N)=O | -2.71% | 0.13 µM [rising, full curve, poor fit] | 6.51 µM [rising, partial curve, poor fit]
8 | CCN(CC)S(=O)(=O)c1ccc(N2CCOCC2)c(NC(=O)COc2ccc(OC)cc2)c1 | 7.12% |  | 0.326 µM [rising, partial curve, poor fit]
9 | CCc1nnc(NC(=O)Cc2ccc(Br)cc2)s1 | 31.2% |  | 36.6 µM [rising, single point]
10 | COc1ccccc1C(=O)NNC(=O)C1CCN(C(=O)OC(C)(C)C)CC1 | -13.3% |  | 0.58 µM [rising, single point]
11 | O=C(COc1cccnc1[N+](=O)[O-])N1CCN(C(=O)c2ccco2)CC1 | 18.8% | 4.11 µM [rising, single point] | 6.51 µM [rising, single point]
12 | CC(=O)c1ccc(S(=O)(=O)N2CCN(C(=O)c3ccc(N)c([N+](=O)[O-])c3)CC2)cc1 | 16.9% | 0.146 µM [rising, single point] | 6.51 µM [rising, full curve, poor fit]
13 | COc1ccc([C@]23Cc4cc(C#N)ccc4C(O2)c2c(c4ccc(OC)cc4oc2=O)O3)cc1 | 16.2% |  | 5.31 µM [rising, single point]
14 | COc1cc(OC)c(OC)cc1CNCCNC(=O)c1ccco1 | 28.6% |  | 
15 | O=[N+]([O-])c1ccc(O)c(C=Nc2ccc3oc(Cc4ccc(Cl)cc4)nc3c2)c1 | -28.3% |  | 29.1 µM [falling, single point]
16 | CCOC(=O)N1CCC(NC(=O)CCC(=O)c2ccccc2)CC1 | 8.86% |  | 
17 | COc1ccccc1C(=O)Nc1cccc(NC(C)=O)c1 | -10.8% |  | 3.26 µM [rising, single point]
18 | COc1ccc(NC(=O)CSc2nnc(-c3ccco3)n2N)cc1Cl | -10.1% |  | 
19 | Cc1cc(C)n(-c2nc3c(c(=O)[nH]c(=O)n3C)n2CC(O)c2ccccc2)n1 (centres undefined) |  |  | 5.8 µM [rising, single point]
20 | COc1cc2nc(COc3ccc(C#N)cc3)n(CC#N)c(=O)c2cc1OC | -13.1% |  | 0.103 µM [rising, partial curve, poor fit]
21 | COc1ccc(C2=NOC(C(=O)N3CCCc4ccccc43)C2)cc1 (centres undefined) | -16.5% |  | 

Row | SMILES | cell number change | AC50 [1] | AC50 [2]
22 | COc1ccc(CN(CCCN2CCOCC2)C(=O)Nc2cccc(Cl)c2)cc1OC | -5.81% |  | 1.03 µM [rising, full curve, poor fit]
23 | CC(=O)Nc1ccc(C(=O)OCC(=O)Nc2ccccc2F)cc1 |  |  | 3.66 µM [rising, single point]
24 | CC(=O)c1ncnn1CC(=O)c1ccc(Cl)cc1Cl | -25.3% | 2.91 µM [falling, partial curve, poor fit] | 
25 | NC(N)=NS(=O)(=O)c1ccc(N=C2C(=O)Nc3ccccc32)cc1 | 12.2% | 0.00461 µM [falling, full curve, poor fit] | 
26 | O=C(NCc1cccs1)C1CCN(S(=O)(=O)c2cccc3cccnc23)CC1 |  |  | 0.103 µM [falling, partial curve, poor fit]
27 | Cc1cc(-c2nnc(SCC(=O)c3ccc4c(c3)OCCO4)o2)no1 | -28.8% | 6.51 µM [rising, single point] | 
28 | CCOC(=O)N1CCC(N(CCN(C)C)C(=S)Nc2ccccc2OCC)CC1 | -13.3% |  | 3.66 µM [falling, single point]
29 | Cc1ccc(S(=O)(=O)N2CCCCC2)cc1NC(=O)CNC(C)c1ccc(Cl)c(Cl)c1 (centres undefined) | -11.5% |  | 29.1 µM [falling, single point]
30 | CC(=O)c1cccc(NC(=O)CNC(=O)Cc2ccccc2)c1 | 35.9% |  | 16.4 µM [rising, partial curve]
31 | CCOC(=O)CSC1=C(C#N)C(c2ccc(Cl)cc2)CC(=O)N1 (centres undefined) | 18.3% |  | 8.2 µM [rising, partial curve, poor fit]
32 | Cc1cccc(C)c1NC(=O)Cn1nc(C)n2cccc2c1=O | -17.5% |  | 
33 | CCN(CC)CCCNC(=O)c1cn(CC)c2ccc(S(=O)(=O)N(C)C3CCCCC3)cc2c1=O | 19.1% |  | 29.1 µM [falling, single point]
34 | CC(C)c1nc(N2CCN(C(=O)c3ccco3)CC2)c(C#N)c2c1COC(C)(C)C2 | 6.58% |  | 22.4 µM [rising, single point]
35 | O=C(Nc1ccncc1)Nc1cccc(F)c1 |  | 0.517 µM [rising, single point] | 6.51 µM [rising, single point]
36 | COCCSc1nnc(NS(=O)(=O)c2ccccc2)s1 | 6.69% |  | 3.66 µM [falling, partial curve]
37 | COc1cccc(CN(C)C(=O)CCNC(=O)c2ccco2)c1 | 12.3% |  | 0.206 µM [falling, partial curve, poor fit]
38 | O=C(COC(=O)C1(c2ccccc2F)CCCC1)N1CCOCC1 | 32.1% | 25.9 µM [rising, single point] | 
39 | O=C(Nc1cccc(NC(=O)c2cccs2)c1)c1ccc2c(c1)OCO2 | 27.5% | 1.3 µM [rising, partial curve] | 1.46 µM [rising, full curve]
40 | Cc1cccc(S(=O)(=O)Nc2nc3ccccc3nc2OC(C)C)c1 | 24.3% |  | 18.4 µM [rising, partial curve]
41 | CCCCNC(=O)C(C#N)c1nc2ccccc2nc1N1CCCC1 (centres undefined) |  | 1.46 µM [rising, partial curve] | 0.291 µM [rising, partial curve, poor fit]
42 | Cc1ccc(S(=O)(=O)N(C)C)cc1NC(=S)N(C)C1CCN(C)CC1 | 0.709% | 0.58 µM [rising, partial curve, poor fit] | 

Row | SMILES | cell number change | AC50 [1] | AC50 [2]
43 | CCN(C(=O)c1ccc(C)c(Br)c1)c1ccccc1 | -13.4% |  | 
44 | CCCCn1nnnc1NCc1cc(Cl)c(OC)c(OC)c1 | 80.6% |  | 0.146 µM [falling, full curve, poor fit]
45 | O=C(NCCO)c1cc2ccccc2c(=O)s1 | -17.6% |  | 29.1 µM [falling, single point]
46 | O=C(CSCCc1ccccn1)Nc1cccnc1Cl | -9.89% |  | 16.4 µM [falling, partial curve]
47 | Cc1ccc(Nc2nnc(SCC(=O)c3ccc(Br)s3)s2)c(C)c1 | 16.7% |  | 16.4 µM [rising, partial curve]
48 | COc1cc(C(F)(F)F)ccc1C(=O)NCCc1ccco1 | 4.37% |  | 
49 | O=C(c1cnn2c(C(F)(F)F)cc(-c3ccc(Br)cc3)nc12)N1CCOCC1 | -24.6% |  | 14.6 µM [rising, partial curve, poor fit]
50 | CC(C)n1cc(C(=O)N2CCCC(N3CCN(c4cccc(Cl)c4)CC3)C2)cn1 (centres undefined) | -2.89% |  | 0.58 µM [falling, full curve]
51 | O=C(CSc1ncn[nH]1)N1CCN(S(=O)(=O)c2ccc(Cl)cc2)CC1 | 37.5% | 0.013 µM [rising, full curve] | 
52 | C/C(=C\c1ccccc1)CN1CCN(Cc2ccc(C)o2)C(CCO)C1 (centres undefined) | 10.9% |  | 25.9 µM [rising, partial curve, poor fit]
53 | O=C(C1CCCN(c2ncnc3c2nc2n3CCCCC2)C1)N1CCN(c2ccccc2F)CC1 (centres undefined) | 4.95% |  | 6.51 µM [rising, single point]
54 | CC(Oc1ccccc1)C(=O)Nc1ccc(C(N)=O)cc1 (centres undefined) | 4.7% |  | 0.461 µM [falling, single point]
55 | O=C(CN1CCOCC1)Nc1ccccc1C(=O)Nc1ccccc1 | 5.71% |  | 
56 | CN(c1ccc(C(=O)N2CCN(Cc3ccc4c(c3)OCO4)CC2)cc1)S(=O)(=O)c1ccccc1 | 2.8% | 1.46 µM [rising, partial curve, poor fit] | 
57 | O=C(NCc1ccccc1F)C1CCCN1C(=O)Nc1ccc(F)cc1 (centres undefined) | 28.4% | 0.00461 µM [rising, full curve, poor fit] | 
58 | C=CCn1c(SCC(=O)Nc2ccc(NC(=O)c3ccco3)c(OC)c2)nnc1-c1ccncc1 | -6.66% |  | 0.411 µM [rising, full curve]
59 | CC1(C)CC(=O)C(C=NCCN2CCN(C3CC(=O)N(c4cccc(Br)c4)C3=O)CC2)=C(O)C1 (centres undefined) |  |  | 0.116 µM [falling, full curve, poor fit]
60 | CN(C)C(CNC(=O)c1ccc2nc[nH]c2c1)c1ccccc1 (centres undefined) | 21.5% |  | 23.1 µM [falling, single point]
61 | COCC(=O)NC1CC2CCCC(C1)N2Cc1ccccc1 (centres undefined) | -6.04% |  | 
62 | O=C(Nc1ccc(OCc2ccccc2)cc1)c1ccccc1 | -30.7% | 16.4 µM [falling, single point] | 

Of the compounds above, 4 have an NH in an aromatic ring.
Row | SMILES | cell number change | AC50 [1] | AC50 [2]
2 | COc1ccccc1N=Nc1c(C)[nH][nH]c1=O | -16.7% |  | 0.58 µM [rising, single point]
19 | Cc1cc(C)n(-c2nc3c(c(=O)[nH]c(=O)n3C)n2CC(O)c2ccccc2)n1 (centres undefined) |  |  | 5.8 µM [rising, single point]
51 | O=C(CSc1ncn[nH]1)N1CCN(S(=O)(=O)c2ccc(Cl)cc2)CC1 | 37.5% | 0.013 µM [rising, full curve] | 
60 | CN(C)C(CNC(=O)c1ccc2nc[nH]c2c1)c1ccccc1 (centres undefined) | 21.5% |  | 23.1 µM [falling, single point]
